Test results: PubChem BioAssay AID504467 (National Center for Advancing Translational Sciences (NCATS), 2011)
About 7,700 (2.3%) of roughly 330,000 compounds were called active. The inconclusive results got no clear call from the source; some entries with a clear call stand among them for comparison. Calls come from the whole dose curve; as a rule, active = well fitted inhibition curve with a large enough effect; inconclusive = small, poorly fitted or top-dose-only effect, or effect the other way; inactive = flat fitted curve, though single readings scatter. Potencies of inconclusive entries are doubtful fits and often do not repeat.

assay: qHTS screen for small molecules that inhibit ELG1-dependent DNA repair in human embryonic kidney (HEK293T) cells expressing luciferase-tagged ELG1; conditions: HEK293T ELG1-luciferase reporter, luminescence, 16 h, DNA damage induced by 5-fluorouridine; activity change, negative = inhibition: at 46.1 µM (top of the series); note: nearly all actives have a fitted effect of over 55% in size
Method in brief: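 In this reporter screen, reduction of luminescence relative to DMSO vehicle indicated activity. Compounds and 5-fluorouridine were added together to 2,000 cells per well, incubated for 16 hr at 37 °C, then developed with ONE-Glo.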
% is set by controls: 0 for no effect and ±100 for the full control effect; potency is the fitted concentration of half-maximal effect.

| SMILES | Potency | activity change, negative = inhibition |
| --- | --- | --- |
| CCN(CC)CCNC(=O)c1cc(S(=O)(=O)N2CCc3ccccc32)cn1C | inconclusive: 3.26 µM [activator, partial curve, poor fit] |  |
| Cc1ccc(C(=O)CSc2nnc(-c3ccco3)n2Cc2ccccc2)cc1 | inconclusive: 10.3 µM [activator, partial curve] |  |
| C#CCOCCOCCOCCNc1nc(N2CCN(C(=O)[C@H](CCC(=O)O)n3cc(C(N)Cc4ccc(O)cc4)nn3)CC2)nc(N2CCN(C(=O)[C@H](Cc3ccc(O)cc3)n3cc(C(N)CC(C)C)nn3)CC2)n1 (stereo not given in full) | inconclusive: 29.1 µM [activator, partial curve, poor fit] |  |
| COC(=O)c1cn(NC(=O)c2cc([N+](=O)[O-])ccc2F)c(=O)c2ccccc12 | inconclusive: 14.6 µM [inhibitor, partial curve] |  |
| CCOc1ccc(N2CC(NS(=O)(=O)c3cccs3)CC2=O)cc1 (stereo not given) |  | inactive: 5.7% |
| COc1ccccc1OCc1cc(C(=O)N2CCN(C)C(c3ccccc3)C2)no1 (stereo not given) | inconclusive: 1.83 µM [activator, full curve] |  |
| O=c1c2ccc([N+](=O)[O-])c3cccc(c32)c2nc3ccccc3n12 | inconclusive: 2.82 µM [inhibitor, partial curve, poor fit] |  |
| CS(=O)(=O)N1CCN(C(=S)NCc2ccc(Cl)cc2)CC1 |  | inactive: 8.7% |
| Cc1ccc2nc(SCC(=O)Nc3ncccn3)[nH]c2c1 | inconclusive: 23.1 µM [activator, single point] |  |
| CC(=O)c1c(C)[nH]c(C(=O)Nc2ccc(F)c(F)c2F)c1C | inconclusive: 32.6 µM [activator, partial curve, poor fit] |  |
| O=C1NC[C@H](c2ccccc2)N(CCc2cccc(F)c2)C1=O |  | inactive: 3.25% |
| O=C(Nc1ccc2nc(-c3ccco3)[nH]c2c1)c1cccs1 | inconclusive: 2.59 µM [activator, full curve] |  |
| CC(CC(=O)N1CCN(c2ccccc2)CC1)S(=O)(=O)c1ccc2c(c1)NC(=O)CO2 (stereo not given) | active: 10.3 µM |  |
| Cc1cc(C)c2nc(N3C(=O)C(O)=C(C(=O)c4ccco4)C3c3cccc(O)c3)sc2c1 (stereo not given) | inconclusive: 23.1 µM [activator, single point] |  |
| CCCCP(=O)(CCCC)c1ccccc1C(=O)O |  | inactive: 6.35% |
| COc1ccc(/C=N\NC(=O)c2ccccc2Br)cc1COc1ccccc1 |  | inactive: 5.66% |
| CCc1cccc(CC)c1NC(=S)NCCc1c(C)[nH]c2ccc(C)cc12 | inconclusive: 20.6 µM [inhibitor, single point] |  |
| C/C(Cl)=C/Cn1c(N2CCCC2)nc2c1c(=O)n(C)c(=O)n2C | inconclusive: 20 µM [inhibitor, single point] |  |
| COc1ccc(-c2nc(NCCCN(C)C)c3ccccc3n2)cc1 |  | inactive: -18.2% |
| CC1CCCN(CCCNC(=O)c2cc3c(Cl)nc4ccccc4c3s2)C1 (stereo not given) | inconclusive: 18.3 µM [activator, single point] |  |
| NCCNC[C@@H]1COC2(CCCCCCCCCCC2)O1 | inconclusive: 29.1 µM [activator, single point] |  |
| Cc1nc(CSc2n[nH]c(=O)n2-c2cccc(F)c2)cs1 |  | inactive: -4.51% |
| CCCCc1c(C)nc2cc(-c3ccco3)[nH]n2c1=O | inconclusive: 16.4 µM [activator, partial curve] |  |
| COc1ccc(CN2CCN(c3ccccn3)CC2)c(OC)c1C | inconclusive: 29.1 µM [inhibitor, single point] |  |

| SMILES | Potency | activity change, negative = inhibition |
| --- | --- | --- |
| Cn1cc(S(=O)(=O)N2CCOCC2)cc1C(=O)NCc1ccccc1Cl |  | inactive: 0.418% |
| COC1=C(N)C(=O)c2nc(-c3nc(C(=O)O)c(C)c(-c4ccc(OC)c(OC)c4O)c3N)ccc2C1=O | active: 0.82 µM |  |
| C(=N\NCc1ccccc1)/c1ccc2ncccc2c1 | inconclusive: 2.31 µM [activator, full curve] |  |
| O=C(Nc1ccc(F)cc1)c1csc(Cc2ccccc2)n1 | inconclusive: 7.3 µM [activator, partial curve] |  |
| COc1ccc(Br)c(C(=O)OCC(=O)NC(=O)NC2CCCC2)c1 | inconclusive: 6.51 µM [inhibitor, single point] |  |
| Cc1csc(NC(=O)c2cncc(Br)c2)n1 | inconclusive: 2.91 µM [activator, partial curve] |  |
| CN(C)c1ccc(/C=N/Nc2cccc(C(=O)O)c2)cc1 | inconclusive: 0.058 µM [activator, partial curve, poor fit] |  |
| O=C(Nc1cccc(Cl)c1)N1CCCC1 |  | inactive: 18.1% |
| Cc1cc2c(c(C)c1Br)C(c1ccc3c(c1)OCO3)CC(=O)O2 (stereo not given) |  | inactive: -2.55% |
| CCn1c(CC(=O)Nc2ccccc2F)nnc1SCC(=O)NC1CCCC1 |  | inactive: -0.131% |
| CC/C(=N\NC(=O)c1ccoc1C)c1ccc(C)o1 | inconclusive: 23.1 µM [activator, partial curve] |  |
| COc1ccc(NC2CCCN(C(=O)CN3CCOC3=O)C2)cc1 (stereo not given) | inconclusive: 20.6 µM [activator, single point] |  |
| COc1ccccc1N1CCN(C(=O)C(C)N(c2ccc(C)cc2)S(C)(=O)=O)CC1 (stereo not given) | inconclusive: 5.17 µM [inhibitor, partial curve, poor fit] |  |
| CC1CCN(C(=O)CCCC(=O)O)CC1 | inconclusive: 20.6 µM [activator, single point] |  |
| Cc1ccc(C(=O)N2CCCN(c3nc4cc5c(cc4cc3C#N)OCO5)CC2)cc1 | inconclusive: 18.3 µM [inhibitor, single point] |  |
| O=C(c1cc(F)c(F)cc1Cl)N1CCN(CCc2ccccc2)CC1 |  | inactive: -11% |
| CCc1c(C)sc(NC(=O)OC)c1C(N)=O |  | inactive: 0.311% |
| O=C(NCc1cccc(OC(F)(F)F)c1)c1cccc2c1C(=O)c1ccc(-c3ccc(F)cc3OCc3ccccc3)cc1S2(=O)=O | inconclusive: 1.64 µM [inhibitor, partial curve] |  |
| COc1cccc(CNC(=O)CN2C(=O)CCSc3ccc(S(=O)(=O)N4CCCC4)cc32)c1 | inconclusive: 29.1 µM [inhibitor, single point] |  |
| COc1ccc(-c2cc(C(=O)NCc3ccco3)c3ccccc3n2)c(OC)c1 |  | inactive: -29.8% |
| NC(=O)Nc1ccc(C(=O)OCC(=O)Nc2ccc([N+](=O)[O-])cc2C(F)(F)F)cc1 | inconclusive: 23.1 µM [inhibitor, single point] |  |
| O=C(Nc1ccc(S(=O)(=O)N2CCCC2)cc1)c1cc(=O)c2ccccc2o1 |  | inactive: -17.2% |
| COC(=O)c1cccc(NC(=O)C2C3CCC(C3)C2C(=O)O)c1 (stereo not given) | inconclusive: 5.8 µM [inhibitor, full curve, poor fit] |  |
| COC(=O)[C@]1(C)N[C@H](c2ccc(-c3ccc(OC)cc3)cc2)[C@@H]2C(=O)N(C)C(=O)[C@@H]21 |  | inactive: 0% |

In the list so far, six have a Cl atom.

| SMILES | Potency | activity change, negative = inhibition |
| --- | --- | --- |
| CS(=O)(=O)N1CCN(C(=S)NCc2ccc(Cl)cc2)CC1 |  | inactive: 8.7% |
| C/C(Cl)=C/Cn1c(N2CCCC2)nc2c1c(=O)n(C)c(=O)n2C | inconclusive: 20 µM [inhibitor, single point] |  |
| CC1CCCN(CCCNC(=O)c2cc3c(Cl)nc4ccccc4c3s2)C1 (stereo not given) | inconclusive: 18.3 µM [activator, single point] |  |
| Cn1cc(S(=O)(=O)N2CCOCC2)cc1C(=O)NCc1ccccc1Cl |  | inactive: 0.418% |
| O=C(Nc1cccc(Cl)c1)N1CCCC1 |  | inactive: 18.1% |
| O=C(c1cc(F)c(F)cc1Cl)N1CCN(CCc2ccccc2)CC1 |  | inactive: -11% |

Additional entries

| SMILES | Potency | activity change, negative = inhibition |
| --- | --- | --- |
| Cc1nc(SCC(=O)Nc2nc3ccccc3s2)c(C#N)c(C)c1C | active: 5.17 µM |  |
| CC(=O)n1nc(-c2ccc(C)cc2)nc1NCc1ccco1 | inconclusive: 14.6 µM [activator, partial curve] |  |
| C=CCN1C(=O)/C(=C/C(=O)OC)S/C1=N\NC(=O)c1ccccc1 | inconclusive: 29.1 µM [activator, single point] |  |
| COc1cc2c(cc1OC)C(c1cc3cc4c(cc3[nH]c1=O)OCO4)N(C(=O)C1CC1)CC2 (stereo not given) |  | inactive: 7.43% |
| CSc1ccc(-c2cc(=O)c3ccccc3o2)cc1 | inconclusive: 7.31 µM [activator, partial curve] |  |
| COc1cc2[nH]c(=O)n3nc(-c4ccccc4)nc3c2cc1OC | active: 20.6 µM |  |
| COc1ccc(CC2=CC(=O)c3ccccc3C2=O)cc1 | inconclusive: 32.6 µM [inhibitor, single point] |  |
| O=c1[nH]c(=O)n([C@H]2C[C@H](O)[C@@H](CO)O2)cc1Br |  | inactive: 9.95% |
| CCOc1ccc(S(=O)(=O)n2ccc(C)n2)c2ccccc12 |  | inactive: -8.21% |
| CC1CCN(S(=O)(=O)c2ccc(NC(=O)c3ccco3)cc2)CC1 |  | inactive: -12.2% |
| O=C(COC(=O)CNC(=O)C1CCCCC1)Nc1ccccc1Cl | inconclusive: 0.259 µM [activator, full curve, poor fit] |  |
| CCOC(=O)/C(C#N)=C1/SC(C)C(=O)N1c1ccc(Br)cc1 (stereo not given) |  | inactive: 6.54% |
| O=C1CCCC/C1=C/Nc1ccc2c(c1)OCO2 | inconclusive: 8.91 µM [activator, partial curve, poor fit] |  |
| C=CCNC(=S)Nc1ccc(C(N)=O)cc1 |  | inactive: -0.553% |
| O=C(CCc1nc(-c2ccccc2)no1)Nc1cc(C(F)(F)F)ccc1Cl | inconclusive: 29.1 µM [inhibitor, single point] |  |
| Cn1c(=O)n(C)c2cc(S(=O)(=O)NCc3ccccc3)ccc21 | inconclusive: 20.6 µM [inhibitor, partial curve, poor fit] |  |
| COc1ccc(-c2ccc(-c3noc(-c4cccc(OC)c4)n3)c(OC)n2)cc1 |  | inactive: 11.9% |
| O=C(NC(=S)Nc1ccc(Cc2ccncc2)cc1)c1ccccc1F | inconclusive: 29.1 µM [inhibitor, single point] |  |
| CCOc1cccc(C(=O)NC(=S)Nc2cccnc2)c1 | inconclusive: 18.4 µM [activator, partial curve] |  |
| COc1cccc(CN(C)C(=O)c2cccnc2SC)c1OC | inconclusive: 29.1 µM [inhibitor, single point] |  |
| Cc1ccc(-n2nnc(-c3cccnc3Cl)n2)cc1 | inconclusive: 5.8 µM [activator, partial curve, poor fit] |  |
| CC(C)Oc1ccc(/C=N/NC(=O)c2nnn(-c3nonc3N)c2CN(C)c2ccccc2)cc1 | inconclusive: 18.3 µM [inhibitor, single point] |  |
